Measured values published in article doi:10.1101/194993.
Numbering of substitutions follows the chain as printed. Results are given in words; binding and its absence hold for the method and conditions named. Binding seen in cells or lysates may run through a third protein. Some results given as binding are weak or reduced against the parent protein; the word gives no strength. Sequences can lack the tags named with a protein.

The chains behind the UniProt entries cited, without tags or fusion partners. Where a name states a change or a piece, a line headed by the entry shows the natural chain unless it says otherwise.
UniProt Q96GD4, whole entry: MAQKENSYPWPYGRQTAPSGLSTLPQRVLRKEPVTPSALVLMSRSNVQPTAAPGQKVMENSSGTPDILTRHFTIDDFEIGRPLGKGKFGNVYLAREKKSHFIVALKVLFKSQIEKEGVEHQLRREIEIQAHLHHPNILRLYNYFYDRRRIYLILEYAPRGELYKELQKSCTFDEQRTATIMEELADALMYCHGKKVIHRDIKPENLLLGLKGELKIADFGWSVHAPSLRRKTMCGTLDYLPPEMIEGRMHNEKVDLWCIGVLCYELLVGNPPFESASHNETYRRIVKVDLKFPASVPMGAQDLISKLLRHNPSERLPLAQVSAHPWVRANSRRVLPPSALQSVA

Tests used:
[1] = target: T1, cy-Cdt1 mutant [RRL (68-70) AAA], HA/His-tagged (human) (UniProt Q9H211); assay: pull-down
T1 sequence: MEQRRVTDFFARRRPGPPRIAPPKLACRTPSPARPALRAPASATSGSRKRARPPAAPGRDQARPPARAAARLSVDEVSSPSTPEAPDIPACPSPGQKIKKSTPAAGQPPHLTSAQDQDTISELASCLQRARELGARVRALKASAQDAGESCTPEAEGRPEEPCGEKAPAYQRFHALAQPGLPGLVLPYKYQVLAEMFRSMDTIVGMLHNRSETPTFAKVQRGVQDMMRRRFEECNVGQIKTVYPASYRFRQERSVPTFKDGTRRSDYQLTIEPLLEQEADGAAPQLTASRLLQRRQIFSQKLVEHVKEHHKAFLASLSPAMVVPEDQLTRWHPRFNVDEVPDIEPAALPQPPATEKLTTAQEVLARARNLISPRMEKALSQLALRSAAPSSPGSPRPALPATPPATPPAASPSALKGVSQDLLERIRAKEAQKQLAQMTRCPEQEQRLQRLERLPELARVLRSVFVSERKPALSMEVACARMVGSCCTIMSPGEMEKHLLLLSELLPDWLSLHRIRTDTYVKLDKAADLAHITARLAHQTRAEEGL

[2] = target: T2, HA/His-tagged Cdt1-WT (Cdt1-HASH) (human) (UniProt Q9H211); assay: pull-down
T2 sequence: T1 sequence with A68R, A69R, A70L

In the case of “Aurora B kinase (endogenous) (from UniProt Q96GD4 1-344) (enzyme)”, the binding [1] is reported as “binds” and the binding [2] is reported as “binds”.
